One molecule from CN1618812A can be followed below.

These are yes or no findings as the source states them, for the method shown. Binding seen in cells or lysates may run through a third protein. Some entries that bind do so weakly or less than the wild type. Where a sequence is shown, tags or fusion partners need not be part of it.

The assay has as its target T1, 人CD20蛋白 (human) (UniProt P11836).
T1 sequence (looked up): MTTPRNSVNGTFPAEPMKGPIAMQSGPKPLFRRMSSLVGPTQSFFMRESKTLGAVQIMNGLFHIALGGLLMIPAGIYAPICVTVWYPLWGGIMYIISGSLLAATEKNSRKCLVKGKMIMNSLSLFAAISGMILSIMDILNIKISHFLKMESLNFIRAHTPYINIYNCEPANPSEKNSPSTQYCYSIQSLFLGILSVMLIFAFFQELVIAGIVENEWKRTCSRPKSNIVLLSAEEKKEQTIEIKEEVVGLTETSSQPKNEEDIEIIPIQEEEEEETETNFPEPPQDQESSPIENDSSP
Put plainly: in vitro precipitation (pull-down) of human CD20 protein by the GST-scFv fusion.

B1: GST融合抗CD20单链抗体 (scFv)
scFv: QESGPGLVKPSETLSLTCVVSGGSISSSNWWSWVRQPPGKGLEWIGEIYHSGSPNYNPSLKSRVTISVDKSKNQFSLKLSSVTAADTAVYYCARIIRIHRTGWGQGTLVTVSSGGGGSGGGGSGGSALEIVMTQTPLSSPVTLGQPASISFRSSQSLVHSDGNTYLNWFQQRPGQSPRRLIYKVSNWDSGVPDRFSGSGSGTDFTLKISGAEAEDVGVYYCMQGTHWLTFGQGTKVEIKR
In the case of B1, the binding result is given as “binds”.
